The target in test [1] is GFP-pSTING CTT ΔTBM (porcine) (UniProt B8XX90). Put plainly: co-IP; HEK293T cotransfected with the two tagged proteins for 48 h (legends; the methods say 24 h); lysis buffer 50 mM Tris pH 7.2, 150 mM NaCl, 1% sodium deoxycholate, 1% Triton X-100; antibody overnight at 4 °C, protein A/G beads 2 h; co-IP and reverse co-IP; Western blot.
For test [2], the target named is GFP-pSTING ΔTBM (porcine) (UniProt B8XX90). The test is described as above.
Test [3] concerns the target pTBK1-HA (porcine TBK1) (porcine). In words: co-IP; 293T cotransfected with 0.5 μg GFP-STING, 0.5 μg TBK1-HA and increasing pIKKε (0.5, 1, 1.5 μg), IP with anti-HA; or 0.5 μg GFP-STING, 0.5 μg mCherry-IKKε and increasing pTBK1 (0.5, 1, 1.5 μg), IP with anti-mCherry; 48 h; Western blot.

By UniProt entry, the sequences of proteins in these tests, tags left out. Where a name states a change or a piece, a line headed by the entry shows the natural chain unless it says otherwise.
UniProt B8XX90: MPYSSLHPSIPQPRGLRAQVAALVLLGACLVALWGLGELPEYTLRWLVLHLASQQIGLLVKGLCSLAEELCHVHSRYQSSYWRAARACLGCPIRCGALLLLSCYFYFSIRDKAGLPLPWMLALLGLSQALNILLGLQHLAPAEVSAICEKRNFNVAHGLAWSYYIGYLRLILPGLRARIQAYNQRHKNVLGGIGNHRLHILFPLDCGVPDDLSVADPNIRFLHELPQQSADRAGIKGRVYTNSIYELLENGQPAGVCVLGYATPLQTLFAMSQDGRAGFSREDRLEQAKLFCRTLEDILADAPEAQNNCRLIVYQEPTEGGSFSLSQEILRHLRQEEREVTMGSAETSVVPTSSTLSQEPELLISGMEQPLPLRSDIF

Results are given in words; binding and its absence hold for the method and conditions named. Binding seen in cells or lysates may run through a third protein. For part of these data: Binding calls can cover weak binding; strength is not graded here.

B1: mCherry-pIKKε (porcine IKKε) (protein, UniProt M9MMN5 1-718)
chain: MQSTVNYLWHTDDLLGQGATASVYKARNKKSGELVAVKVFNTASYLRPREVQVREFEVLRKLNHQNIIKLFAVEETGGSRQKVLVMEYCSSGSLLSVLESPENAFGLPENEFLVVLRCVVAGMNHLRENGIVHRDIKPGNIMRLVGEEGQSIYKLTDFGAARELDDDEKFVSVYGTEEYLHPDMYEQAVLRKPQQKAFGVTVDLWSIGVTLYHAATGSLPFIPYGGPRRNKEIMYRITSEKPAGAIAGIQKRENGPLEWSYTLPVTCQLSTGLQSQLVPILANILEVEQAKCWGFDQFFAETSDILQRVIVHVFSLPQAVLHHVYVHTHNTIAIFLEAVYEQTNVAPQHQEYLFEGHLCVLEPSLSAQHIAHTTASSPLTLFSVASEIPKGLAFRDPALDIPKFVPKVDLQADYNTAKGVLGAGYQALRLARALLAGQELMLRGLHWFVEILQATCKRTLEVTRMALLFLSSSLGNERSSSVAGVQEIQELKRVAEMRSQLRTLAEVLSRCSHNITETQMTLSNLSSELMKNRDQVHEDRSIQQIQCSLDKMCLIYKQFKKSRMRPGLGYNEEQIHKLDKMNFSHLAKRLLQVFQEERVQKYQASLVTHGKRMRLVHETRNHLRLVGCSVAACNTQAQGAQESLSQILDQLAHQLLQDRTRGAQASPPLMATYPNPGLKDLVLHMQELCEEMKLLACDLQDNNRIIEGLNRVPAAPDI
Regarding B1, the binding result in test [1] is given as “no binding”; in test [2] it was “no binding”; in test [3], “binds”.

The values are drawn from paper PMC10520887.
